Reference: publication PMC6312541
Results are given in words; binding and its absence hold for the method and conditions named. Binding seen in cells or lysates may run through a third protein. Binding can be weak; no strength is given.

The chains behind the UniProt entries cited, without tags or fusion partners. Where a name states a change or a piece, a line headed by the entry shows the natural chain unless it says otherwise.
UniProt Q13283: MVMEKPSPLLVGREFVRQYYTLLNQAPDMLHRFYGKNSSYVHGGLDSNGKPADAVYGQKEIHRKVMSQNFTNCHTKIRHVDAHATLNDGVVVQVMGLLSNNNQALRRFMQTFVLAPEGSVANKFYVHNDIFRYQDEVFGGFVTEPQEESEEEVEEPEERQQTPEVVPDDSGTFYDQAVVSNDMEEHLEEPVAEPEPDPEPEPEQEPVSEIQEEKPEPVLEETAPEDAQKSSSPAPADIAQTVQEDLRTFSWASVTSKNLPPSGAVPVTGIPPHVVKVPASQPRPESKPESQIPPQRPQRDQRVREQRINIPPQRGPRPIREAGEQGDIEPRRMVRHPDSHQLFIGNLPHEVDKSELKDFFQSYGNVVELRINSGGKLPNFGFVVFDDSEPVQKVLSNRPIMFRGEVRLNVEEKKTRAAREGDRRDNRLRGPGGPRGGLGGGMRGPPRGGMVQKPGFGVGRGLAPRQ
UniProt Q04637: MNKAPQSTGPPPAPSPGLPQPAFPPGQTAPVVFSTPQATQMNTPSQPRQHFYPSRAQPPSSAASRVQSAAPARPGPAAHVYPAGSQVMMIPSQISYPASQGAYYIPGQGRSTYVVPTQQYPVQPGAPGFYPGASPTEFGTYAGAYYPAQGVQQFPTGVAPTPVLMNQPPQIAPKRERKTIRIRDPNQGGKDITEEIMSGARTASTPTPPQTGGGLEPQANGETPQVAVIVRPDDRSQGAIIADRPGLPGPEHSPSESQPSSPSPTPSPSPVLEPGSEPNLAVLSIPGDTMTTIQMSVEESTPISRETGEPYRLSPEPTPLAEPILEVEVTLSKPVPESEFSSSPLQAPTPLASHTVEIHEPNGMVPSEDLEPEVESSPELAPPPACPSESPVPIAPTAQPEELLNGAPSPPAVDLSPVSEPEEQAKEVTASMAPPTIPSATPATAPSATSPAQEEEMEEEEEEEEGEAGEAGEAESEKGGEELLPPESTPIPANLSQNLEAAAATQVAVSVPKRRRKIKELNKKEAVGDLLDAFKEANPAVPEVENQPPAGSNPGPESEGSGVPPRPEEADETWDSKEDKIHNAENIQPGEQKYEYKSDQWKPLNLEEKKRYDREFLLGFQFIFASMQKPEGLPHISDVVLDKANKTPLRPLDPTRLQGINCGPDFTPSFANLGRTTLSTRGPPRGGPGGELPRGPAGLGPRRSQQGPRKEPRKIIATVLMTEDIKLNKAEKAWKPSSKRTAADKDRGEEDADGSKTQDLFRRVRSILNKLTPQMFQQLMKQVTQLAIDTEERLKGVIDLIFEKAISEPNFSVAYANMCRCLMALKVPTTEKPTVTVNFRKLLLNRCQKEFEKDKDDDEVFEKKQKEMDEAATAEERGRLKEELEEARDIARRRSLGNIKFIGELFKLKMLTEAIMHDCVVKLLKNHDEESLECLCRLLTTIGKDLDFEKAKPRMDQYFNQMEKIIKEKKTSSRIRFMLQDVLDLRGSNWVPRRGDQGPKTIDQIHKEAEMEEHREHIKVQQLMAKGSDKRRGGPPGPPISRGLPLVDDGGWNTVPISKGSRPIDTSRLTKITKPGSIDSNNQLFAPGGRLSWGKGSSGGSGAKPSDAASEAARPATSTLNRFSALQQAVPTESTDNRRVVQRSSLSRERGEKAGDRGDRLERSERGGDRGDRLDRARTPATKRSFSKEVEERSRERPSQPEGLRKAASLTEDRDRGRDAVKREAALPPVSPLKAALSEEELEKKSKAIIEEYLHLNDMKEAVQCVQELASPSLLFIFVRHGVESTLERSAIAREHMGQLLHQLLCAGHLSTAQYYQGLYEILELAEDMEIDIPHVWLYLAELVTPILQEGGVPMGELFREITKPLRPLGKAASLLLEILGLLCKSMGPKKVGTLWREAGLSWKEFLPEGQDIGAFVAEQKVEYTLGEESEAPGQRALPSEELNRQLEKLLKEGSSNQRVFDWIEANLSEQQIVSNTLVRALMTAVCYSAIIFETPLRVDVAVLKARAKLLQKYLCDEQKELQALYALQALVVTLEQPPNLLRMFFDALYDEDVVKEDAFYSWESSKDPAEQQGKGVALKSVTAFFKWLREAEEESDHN

Columns and labels:
Test in all cases: co-IP; IP with anti-FLAG M2 affinity gel (4 °C, 4 h) from lysates of HeLa cells transfected with Flag-tagged constructs; WB for endogenous eIF4GI; lysis buffer with 1% Triton X-100, 0.1% SDS, 1 mM EDTA, pH 7.4
[1] = target: Flag-tagged G3BP1 lacking the acidic (ACID) domain (human (from the RefSeq entry NM_005754.2)) (UniProt Q13283)
[2] = target: Flag-tagged G3BP1 lacking the proline-rich (PxxP) domain (human (from the RefSeq entry NM_005754.2)) (UniProt Q13283)
[3] = target: Flag-tagged G3BP1 lacking the RNA recognition motif (G3BP1-ΔRRM) (human (from the RefSeq entry NM_005754.2)) (UniProt Q13283)

Measured: binding

eIF4GI, endogenous (from UniProt Q04637 1-1599)
binds: all assays above
